Experimental data reported in patent US7695728B2, “2-substituted pyridines, processes for their preparation and their use for controlling harmful fungi” (BASF Aktiengesellschaft, priority 2004, dated 2010).
Some entries share one result that the patent states for a list of compounds.

Test system: Sphaerotheca fuliginea
Test: Activity against mildew on cucumber leaves caused by Sphaerotheca fuliginea on protective application
Assay type: in vivo
Settings: potted cucumber seedlings, 250 ppm active compound, protective spray, inoculated 20 hours after drying, assessed after 7 days; untreated plants 60% infected

Compound | infection (% infection of the cotyledon area) [%]
CC(C)CC(C)Nc1cc(-n2cccn2)nc(Cl)c1-c1c(F)cccc1Cl (stereo not shown) [I-10] | ≤ 15
CC(Nc1cc(-n2cccn2)nc(Cl)c1-c1c(F)cccc1Cl)C1CC1 (stereo not shown) [I-17] | ≤ 15
CC1CCN(c2nc(-c3ccccn3)cc(Cl)c2-c2c(F)cccc2Cl)CC1 [I-30] | ≤ 15
CC(Nc1nc(-c2ccccn2)cc(Cl)c1-c1c(F)cccc1Cl)C1CC1 (stereo not shown) [I-32] | ≤ 15
CC(Nc1cc(-c2ccccn2)nc(Cl)c1-c1c(F)cccc1Cl)C1CC1 (stereo not shown) [I-33] | ≤ 15
CCC(C)Nc1cc(-c2ccccn2)nc(Cl)c1-c1c(F)cccc1Cl (stereo not shown) [I-42, 2-chloro-3-(2-chloro-6-fluorophenyl)-4-(2-butylamino)-6-(pyridin-2-yl)pyridine] | ≤ 15
Fc1cccc(Cl)c1-c1c(Cl)cc(-n2cccn2)nc1NC1CCCCC1 [I-43] | ≤ 15
Fc1cccc(Cl)c1-c1c(NC2CCCCC2)cc(-n2cccn2)nc1Cl [I-44] | ≤ 15
Cc1cccc(-c2cc(Cl)c(-c3c(F)cccc3Cl)c(NC(C)C)n2)n1 [I-45] | ≤ 15
CC(C)Nc1nc(-c2nc3ccccc3s2)cc(Cl)c1-c1c(F)cccc1Cl [I-51] | ≤ 15
CC(C)Nc1cc(-c2nc3ccccc3s2)nc(Cl)c1-c1c(F)cccc1Cl [I-52] | ≤ 15
CC1CCN(c2cc(-c3ncccn3)nc(Cl)c2-c2c(F)cccc2Cl)CC1 [I-54] | ≤ 15
COc1ccc(CCNc2nc(-c3ccccn3)cc(Cl)c2-c2c(F)cccc2Cl)cc1OC [I-55] | ≤ 15
COc1ccc(CCNc2cc(-c3ccccn3)nc(Cl)c2-c2c(F)cccc2Cl)cc1OC [I-56] | ≤ 15
COc1ccc(CCNc2nc(-n3cccn3)cc(Cl)c2-c2c(F)cccc2Cl)cc1OC [I-57] | ≤ 15
COc1ccc(CCNc2cc(-n3cccn3)nc(Cl)c2-c2c(F)cccc2Cl)cc1OC [I-58] | ≤ 15
